Experiment: Tape durability test (friction coefficient, still durability, shuttle durability)
Conditions: for Still durability after heating/min / Friction coefficient after 100 runs after heating / Shuttle durability after heating/times: after heating test 10 minutes at 100° C.
[1] = −5° C., decay time of output by −3 dB in paused state
[2] = −5° C., shuttles until output reduced by 3 dB

Compound	Still durability/min (40° C., 30% RH) [min]	Still durability after heating/min (40° C., 30% RH) [min]	Friction coefficient after 100 runs (40° C., 90% RH)	Shuttle durability/times (40° C., 90% RH) [times]	Friction coefficient after 100 runs after heating (40° C., 90% RH)	Shuttle durability after heating/times (40° C., 90% RH) [times]	Friction coefficient after 100 runs (−5° C.)	Friction coefficient after 100 runs after heating (−5° C.)	Shuttle durability after heating/times (−5° C.) [times]	Still durability after heating/min (−5° C.) [min]	Still durability/min [1] [min]	Shuttle durability/times [2] [times]
heptadecafluorooctanesulfonic acid-6-octadecyl-1,8-diazabicyclo[5.4.0]-7-undecenium [Comparative Example 3A]	>60	>60	0.26	>200	0.26	>200	0.22	0.24	>200	>60	>60	>200
CCCCCCCCCCCCCCCCCC[n+]1ccn(CCCO)c1.O=S(=O)([N-]S(=O)(=O)C(F)(F)C(F)(F)C(F)(F)C(F)(F)F)C(F)(F)C(F)(F)C(F)(F)C(F)(F)F [Example 2A, bis(nonafluorobutanesulfonyl)imide1-3′hydroxypropyl-3-octadecylimidazolium]	>60	>60	0.25	>200	0.26	>200	0.22	0.23	>200	>60	>60	>200
CCCCCCCCCCCCCCCCCCn1ccnc1CCCCCCCCCCCCCCCCC.O=S1(=O)NS(=O)(=O)C(F)(F)C(F)(F)C1(F)F [Comparative Example 7A, hexafluorocyclopropane-1,3-bis(sulfonyl)imide-1-octadecyl-2-heptadecylimidazolium]	>60	>60	0.22	>200	0.23	>200	0.20	0.22	>200	>60	>60	>200
